# Measurements from the supplement of paper PMC10849652.
# Chains of the proteins cited; added tags and fusions are not shown. Lines headed by an entry give the natural chain unless they say otherwise; changes in a name come on top.
# UniProt Q53GS9: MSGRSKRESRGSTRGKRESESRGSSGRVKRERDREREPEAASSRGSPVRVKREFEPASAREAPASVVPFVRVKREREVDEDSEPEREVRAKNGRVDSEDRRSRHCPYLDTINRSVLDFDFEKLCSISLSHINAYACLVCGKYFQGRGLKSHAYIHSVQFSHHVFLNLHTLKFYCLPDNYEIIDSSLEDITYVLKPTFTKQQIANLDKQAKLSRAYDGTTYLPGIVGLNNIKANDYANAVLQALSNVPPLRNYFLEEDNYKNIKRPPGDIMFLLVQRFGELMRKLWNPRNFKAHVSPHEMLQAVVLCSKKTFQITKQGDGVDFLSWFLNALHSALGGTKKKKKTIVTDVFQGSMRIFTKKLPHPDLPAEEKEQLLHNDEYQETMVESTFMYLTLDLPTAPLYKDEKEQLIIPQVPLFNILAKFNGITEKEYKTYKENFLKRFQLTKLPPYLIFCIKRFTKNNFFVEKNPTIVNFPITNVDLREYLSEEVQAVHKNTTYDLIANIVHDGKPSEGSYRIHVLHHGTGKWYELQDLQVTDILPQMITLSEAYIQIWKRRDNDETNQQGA
# UniProt Q9Y3C8: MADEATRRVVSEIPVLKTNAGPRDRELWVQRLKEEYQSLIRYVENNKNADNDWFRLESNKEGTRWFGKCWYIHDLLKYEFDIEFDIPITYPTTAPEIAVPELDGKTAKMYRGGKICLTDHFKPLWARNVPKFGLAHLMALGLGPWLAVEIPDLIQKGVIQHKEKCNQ
# UniProt Q70J99: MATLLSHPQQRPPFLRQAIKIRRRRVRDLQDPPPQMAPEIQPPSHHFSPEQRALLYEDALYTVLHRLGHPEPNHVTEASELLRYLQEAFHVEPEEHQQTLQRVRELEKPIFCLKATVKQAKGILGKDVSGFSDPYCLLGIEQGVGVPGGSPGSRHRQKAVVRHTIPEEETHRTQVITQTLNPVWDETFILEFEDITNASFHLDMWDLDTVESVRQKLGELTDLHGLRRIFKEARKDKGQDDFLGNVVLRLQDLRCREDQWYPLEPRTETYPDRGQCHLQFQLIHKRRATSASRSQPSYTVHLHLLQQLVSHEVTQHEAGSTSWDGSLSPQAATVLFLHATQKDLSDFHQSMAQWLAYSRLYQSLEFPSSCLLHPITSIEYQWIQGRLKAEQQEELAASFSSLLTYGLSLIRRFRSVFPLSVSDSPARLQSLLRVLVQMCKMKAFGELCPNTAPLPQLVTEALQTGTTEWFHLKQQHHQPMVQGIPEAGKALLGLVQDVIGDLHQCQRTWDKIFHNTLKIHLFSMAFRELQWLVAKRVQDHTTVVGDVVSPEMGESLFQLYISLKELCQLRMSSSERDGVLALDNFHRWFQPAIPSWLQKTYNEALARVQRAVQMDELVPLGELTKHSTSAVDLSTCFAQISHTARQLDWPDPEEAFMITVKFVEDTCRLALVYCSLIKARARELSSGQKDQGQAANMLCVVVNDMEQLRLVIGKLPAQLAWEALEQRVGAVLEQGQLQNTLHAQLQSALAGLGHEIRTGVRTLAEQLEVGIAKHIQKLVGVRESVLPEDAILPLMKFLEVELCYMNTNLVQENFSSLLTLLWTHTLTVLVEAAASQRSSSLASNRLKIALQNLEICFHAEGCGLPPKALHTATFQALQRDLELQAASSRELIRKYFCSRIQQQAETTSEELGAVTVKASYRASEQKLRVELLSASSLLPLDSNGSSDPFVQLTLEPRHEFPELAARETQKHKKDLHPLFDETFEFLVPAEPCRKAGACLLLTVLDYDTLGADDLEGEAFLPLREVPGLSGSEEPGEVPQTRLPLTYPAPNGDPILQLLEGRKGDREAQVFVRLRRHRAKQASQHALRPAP
# UniProt Q9NRR5, whole entry, looked up: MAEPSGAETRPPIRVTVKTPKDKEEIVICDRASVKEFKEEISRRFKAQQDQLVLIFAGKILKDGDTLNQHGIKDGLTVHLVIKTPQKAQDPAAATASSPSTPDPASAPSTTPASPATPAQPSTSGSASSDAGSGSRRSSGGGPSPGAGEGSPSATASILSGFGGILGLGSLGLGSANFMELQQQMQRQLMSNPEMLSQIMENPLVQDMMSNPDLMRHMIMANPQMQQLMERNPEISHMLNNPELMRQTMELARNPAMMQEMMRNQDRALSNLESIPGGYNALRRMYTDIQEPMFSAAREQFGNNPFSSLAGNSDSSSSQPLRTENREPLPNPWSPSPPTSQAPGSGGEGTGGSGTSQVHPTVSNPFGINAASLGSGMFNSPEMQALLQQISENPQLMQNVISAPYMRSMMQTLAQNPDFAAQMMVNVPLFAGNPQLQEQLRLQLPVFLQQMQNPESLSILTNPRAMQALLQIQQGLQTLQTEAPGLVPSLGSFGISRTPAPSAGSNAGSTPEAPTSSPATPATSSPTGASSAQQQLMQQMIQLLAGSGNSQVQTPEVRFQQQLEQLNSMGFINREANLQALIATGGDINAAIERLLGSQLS
# UniProt O75379: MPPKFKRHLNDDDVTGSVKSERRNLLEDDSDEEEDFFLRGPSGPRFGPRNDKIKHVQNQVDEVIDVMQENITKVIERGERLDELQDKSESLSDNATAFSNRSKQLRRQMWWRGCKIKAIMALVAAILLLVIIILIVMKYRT
# UniProt P14927: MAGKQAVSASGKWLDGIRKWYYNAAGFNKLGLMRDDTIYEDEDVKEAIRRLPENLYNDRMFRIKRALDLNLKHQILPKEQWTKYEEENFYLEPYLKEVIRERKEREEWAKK
# UniProt O95071: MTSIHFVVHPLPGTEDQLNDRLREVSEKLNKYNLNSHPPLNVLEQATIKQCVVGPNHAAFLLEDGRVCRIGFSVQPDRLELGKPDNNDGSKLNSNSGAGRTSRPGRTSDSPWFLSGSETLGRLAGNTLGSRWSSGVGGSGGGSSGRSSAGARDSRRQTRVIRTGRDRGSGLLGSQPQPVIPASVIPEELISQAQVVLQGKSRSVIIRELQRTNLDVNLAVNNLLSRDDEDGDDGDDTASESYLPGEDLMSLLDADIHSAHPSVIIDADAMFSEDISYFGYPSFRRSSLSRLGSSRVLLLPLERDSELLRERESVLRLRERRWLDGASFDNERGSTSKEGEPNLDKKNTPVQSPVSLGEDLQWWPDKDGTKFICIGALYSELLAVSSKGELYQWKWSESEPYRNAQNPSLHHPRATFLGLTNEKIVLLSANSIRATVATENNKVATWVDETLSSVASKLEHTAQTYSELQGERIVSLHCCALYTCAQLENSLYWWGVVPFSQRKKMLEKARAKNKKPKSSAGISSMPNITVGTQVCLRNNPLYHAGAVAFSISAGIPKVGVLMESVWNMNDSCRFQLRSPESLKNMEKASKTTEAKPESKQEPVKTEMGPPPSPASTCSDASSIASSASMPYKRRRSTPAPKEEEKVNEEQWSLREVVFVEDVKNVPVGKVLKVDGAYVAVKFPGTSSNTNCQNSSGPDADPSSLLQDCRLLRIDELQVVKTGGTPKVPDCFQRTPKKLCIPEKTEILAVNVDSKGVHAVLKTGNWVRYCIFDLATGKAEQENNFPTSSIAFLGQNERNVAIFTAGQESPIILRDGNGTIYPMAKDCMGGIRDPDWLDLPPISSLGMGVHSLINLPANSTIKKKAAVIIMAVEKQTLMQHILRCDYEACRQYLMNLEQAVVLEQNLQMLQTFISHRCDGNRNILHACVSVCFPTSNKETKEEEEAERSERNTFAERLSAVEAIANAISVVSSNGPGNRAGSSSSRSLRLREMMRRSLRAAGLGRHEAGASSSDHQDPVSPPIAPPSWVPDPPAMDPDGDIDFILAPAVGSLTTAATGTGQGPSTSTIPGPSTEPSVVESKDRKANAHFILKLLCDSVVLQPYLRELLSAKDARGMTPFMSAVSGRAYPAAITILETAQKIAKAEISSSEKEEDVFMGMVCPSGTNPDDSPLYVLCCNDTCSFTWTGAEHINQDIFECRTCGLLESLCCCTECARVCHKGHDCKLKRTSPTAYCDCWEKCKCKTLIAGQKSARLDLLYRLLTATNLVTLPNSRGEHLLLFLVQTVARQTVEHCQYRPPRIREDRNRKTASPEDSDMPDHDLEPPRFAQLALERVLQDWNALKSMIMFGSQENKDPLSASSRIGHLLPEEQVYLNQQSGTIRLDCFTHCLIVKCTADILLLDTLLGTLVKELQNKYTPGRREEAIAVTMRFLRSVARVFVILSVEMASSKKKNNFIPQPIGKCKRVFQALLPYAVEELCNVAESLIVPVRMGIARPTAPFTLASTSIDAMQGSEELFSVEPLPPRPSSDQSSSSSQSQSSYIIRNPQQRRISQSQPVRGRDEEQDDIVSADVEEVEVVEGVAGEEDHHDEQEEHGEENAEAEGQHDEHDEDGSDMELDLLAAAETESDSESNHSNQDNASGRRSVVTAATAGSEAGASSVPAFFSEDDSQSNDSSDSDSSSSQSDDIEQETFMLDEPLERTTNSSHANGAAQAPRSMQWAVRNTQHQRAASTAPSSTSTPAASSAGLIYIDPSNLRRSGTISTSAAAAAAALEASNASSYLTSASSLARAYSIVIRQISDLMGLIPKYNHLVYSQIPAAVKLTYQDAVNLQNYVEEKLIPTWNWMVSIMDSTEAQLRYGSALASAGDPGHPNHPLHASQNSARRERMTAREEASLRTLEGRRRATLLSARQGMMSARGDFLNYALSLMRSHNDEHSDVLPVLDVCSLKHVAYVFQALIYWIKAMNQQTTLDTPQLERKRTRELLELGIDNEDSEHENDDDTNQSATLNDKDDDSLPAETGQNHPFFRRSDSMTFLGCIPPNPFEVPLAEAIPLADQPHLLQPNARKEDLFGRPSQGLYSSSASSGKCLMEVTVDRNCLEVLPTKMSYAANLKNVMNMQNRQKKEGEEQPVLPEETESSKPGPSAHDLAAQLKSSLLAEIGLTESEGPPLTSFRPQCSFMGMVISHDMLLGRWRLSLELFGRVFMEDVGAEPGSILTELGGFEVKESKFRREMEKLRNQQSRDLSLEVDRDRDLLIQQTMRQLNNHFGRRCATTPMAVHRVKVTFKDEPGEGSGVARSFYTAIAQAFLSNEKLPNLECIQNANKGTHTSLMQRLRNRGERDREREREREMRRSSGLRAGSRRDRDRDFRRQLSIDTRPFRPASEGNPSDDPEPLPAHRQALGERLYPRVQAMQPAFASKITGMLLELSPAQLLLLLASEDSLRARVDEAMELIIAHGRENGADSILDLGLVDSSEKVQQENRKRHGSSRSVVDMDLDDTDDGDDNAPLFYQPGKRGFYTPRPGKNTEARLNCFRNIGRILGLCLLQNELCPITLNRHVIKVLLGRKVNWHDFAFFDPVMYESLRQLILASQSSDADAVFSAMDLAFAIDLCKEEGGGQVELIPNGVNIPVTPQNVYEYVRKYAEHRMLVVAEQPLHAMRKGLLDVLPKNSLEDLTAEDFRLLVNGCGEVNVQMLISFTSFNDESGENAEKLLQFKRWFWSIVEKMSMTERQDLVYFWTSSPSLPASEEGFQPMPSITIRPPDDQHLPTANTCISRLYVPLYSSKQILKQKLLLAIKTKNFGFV
# UniProt P47985: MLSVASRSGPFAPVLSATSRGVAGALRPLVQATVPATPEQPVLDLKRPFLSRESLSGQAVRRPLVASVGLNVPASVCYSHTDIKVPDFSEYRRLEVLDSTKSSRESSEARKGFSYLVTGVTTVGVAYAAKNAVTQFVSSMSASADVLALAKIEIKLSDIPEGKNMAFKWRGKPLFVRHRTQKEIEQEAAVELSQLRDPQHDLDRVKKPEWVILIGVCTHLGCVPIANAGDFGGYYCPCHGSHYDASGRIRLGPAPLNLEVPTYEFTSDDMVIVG
# UniProt P22695: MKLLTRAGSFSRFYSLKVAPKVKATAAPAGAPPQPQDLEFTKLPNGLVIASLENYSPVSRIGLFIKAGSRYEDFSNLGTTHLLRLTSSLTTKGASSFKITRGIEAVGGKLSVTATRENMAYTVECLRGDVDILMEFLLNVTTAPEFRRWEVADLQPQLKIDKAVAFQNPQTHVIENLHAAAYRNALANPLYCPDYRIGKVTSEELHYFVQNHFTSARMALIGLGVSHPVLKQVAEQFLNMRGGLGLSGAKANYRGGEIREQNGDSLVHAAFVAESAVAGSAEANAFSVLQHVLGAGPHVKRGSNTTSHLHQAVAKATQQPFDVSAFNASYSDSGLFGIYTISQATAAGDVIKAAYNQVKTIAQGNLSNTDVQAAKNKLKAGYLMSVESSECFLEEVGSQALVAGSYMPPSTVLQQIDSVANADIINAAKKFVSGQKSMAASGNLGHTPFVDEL
# UniProt Q9NVA1: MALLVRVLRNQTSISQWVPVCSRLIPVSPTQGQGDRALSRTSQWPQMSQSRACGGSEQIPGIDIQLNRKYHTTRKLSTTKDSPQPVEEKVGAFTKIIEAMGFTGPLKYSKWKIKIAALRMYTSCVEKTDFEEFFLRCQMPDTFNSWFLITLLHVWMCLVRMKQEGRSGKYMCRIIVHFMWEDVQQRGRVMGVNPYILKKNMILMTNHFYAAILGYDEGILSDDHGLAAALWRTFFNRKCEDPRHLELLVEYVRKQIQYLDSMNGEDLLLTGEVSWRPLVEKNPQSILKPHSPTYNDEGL
# UniProt Q9BZL1: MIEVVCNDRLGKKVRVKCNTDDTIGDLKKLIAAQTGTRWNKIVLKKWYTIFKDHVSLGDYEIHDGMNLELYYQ
# The other results are listed elsewhere or left out.
# Compound: Cc1ccc(-n2nc(C(C)(C)C)cc2NC(=O)Nc2ccc(OCCN3CCOCC3)c3ccccc23)cc1 [doramapimod]
# Experiment: log2 fold change, soluble protein after heating vs DMSO (PISA); higher = thermal stabilisation; K562 cells, 10 uM, 30 min; active = over 0.2 and 3.5 SD of the protein, either way, in both replicates (recomputed)
# Outline: (§1)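 Soluble protein was defined as the supernatant after 21,000xg for 90 min. It came from K562 cells at 2×10^6 cells/mL given 10 μM compound for 30 min, heated in aliquots for 3 min across 48°C-58°C, pooled, and extracted in PBS with 0.5% NP-40 at 4°C, and was quantified by TMTpro 16plex LC-MS/MS with equalised channel sums. Thermal stability against control samples, from duplicates, is reported as log2 fold change.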
row,Target,log2 fold change
1,VBP1 (UniProt P61758),inactive: -0.012
2,USP39 (UniProt Q53GS9),inactive: -0.002
3,VAMP2 (UniProt P63027),inactive: 0.034
4,UFC1 (UniProt Q9Y3C8),inactive: -0.033
5,UQCRH (UniProt P07919),inactive: -0.077
6,USP10 isoform 2 (UniProt Q14694),inactive: -0.014
7,UCHL3 (UniProt P15374),inactive: 0.009
8,VASP (UniProt P50552),inactive: -0.012
9,UEVLD (UniProt Q8IX04),inactive: 0.164
10,UPF1 (UniProt Q92900),inactive: -0.023
11,UNC45A (UniProt Q9H3U1),inactive: 0.131
12,USP8 (UniProt P40818),inactive: 0.094
13,UNC13D isoform 3 (UniProt Q70J99),inactive: 0.199
14,UBXN1 (UniProt Q04323),inactive: -0.002

# Compound: Cc1ccc(C(=O)N(CCCN)[C@@H](c2nc3cc(Cl)ccc3c(=O)n2Cc2ccccc2)C(C)C)cc1 [ispinesib]
# Experiment: as above
# Outline: as §1
row,Target,log2 fold change
1,UBXN7 (UniProt O94888),inactive: 0.044
2,URGCP (UniProt Q8TCY9),inactive: -0.093
3,UBXN4 (UniProt Q92575),inactive: -0.022
4,VANGL1 (UniProt Q8TAA9),inactive: 0.078
5,UCK1 (UniProt Q9HA47),inactive: 0.062
6,UGP2 (UniProt Q16851),inactive: 0.072
7,UQCRC1 (UniProt P31930),inactive: 0.03
8,VAPA isoform 2 (UniProt Q9P0L0),inactive: 0.046
9,UBQLN4 (UniProt Q9NRR5),inactive: 0.027
10,VAMP4 (UniProt O75379),inactive: -0.202
11,VAPB (UniProt O95292),inactive: 0.018
12,UVRAG (UniProt Q9P2Y5),inactive: -0.062
13,UQCRB (UniProt P14927),inactive: 0.044
14,VCL (UniProt P18206),inactive: 0.073
15,UIMC1 (UniProt Q96RL1),inactive: 0.028
16,UBR5 (UniProt O95071),inactive: -0.045
17,USP5 (UniProt P45974),inactive: 0.081
18,UQCRFS1 (UniProt P47985),inactive: 0.008
19,UMPS (UniProt P11172),inactive: 0.05

row,Target,log2 fold change
1,UQCRC2 (UniProt P22695),inactive: 0.07
2,UBQLN2 (UniProt Q9UHD9),inactive: 0.053
3,UQCC1 (UniProt Q9NVA1),inactive: -0.075
4,VAT1 (UniProt Q99536),inactive: 0.15
5,UBL5 (UniProt Q9BZL1),inactive: 0.048
6,VBP1 (UniProt P61758),inactive: -0.014
7,USP39 (UniProt Q53GS9),inactive: -0.013
8,VAMP2 (UniProt P63027),inactive: -0.005
9,UFC1 (UniProt Q9Y3C8),inactive: 0.053
10,UQCRH (UniProt P07919),inactive: 0.005
11,USP10 isoform 2 (UniProt Q14694),inactive: -0.027
12,UCHL3 (UniProt P15374),inactive: 0.058
13,VASP (UniProt P50552),inactive: -0.125
14,UPF1 (UniProt Q92900),inactive: 0.021
15,UNC45A (UniProt Q9H3U1),inactive: -0.1
16,USP8 (UniProt P40818),inactive: -0.111
17,UNC13D isoform 3 (UniProt Q70J99),inactive: -0.217
18,UBXN1 (UniProt Q04323),inactive: 0.041
